The record followed here is paper PMC7819943, “Rice protein-binding microarrays: a tool to detect cis-acting elements near promoter regions in rice”.

This is one part of the list.

The target of this experiment is T1, OsSMF1 (Oryza sativa, UniProt Q6ZLB0 1-436).
T1 sequence: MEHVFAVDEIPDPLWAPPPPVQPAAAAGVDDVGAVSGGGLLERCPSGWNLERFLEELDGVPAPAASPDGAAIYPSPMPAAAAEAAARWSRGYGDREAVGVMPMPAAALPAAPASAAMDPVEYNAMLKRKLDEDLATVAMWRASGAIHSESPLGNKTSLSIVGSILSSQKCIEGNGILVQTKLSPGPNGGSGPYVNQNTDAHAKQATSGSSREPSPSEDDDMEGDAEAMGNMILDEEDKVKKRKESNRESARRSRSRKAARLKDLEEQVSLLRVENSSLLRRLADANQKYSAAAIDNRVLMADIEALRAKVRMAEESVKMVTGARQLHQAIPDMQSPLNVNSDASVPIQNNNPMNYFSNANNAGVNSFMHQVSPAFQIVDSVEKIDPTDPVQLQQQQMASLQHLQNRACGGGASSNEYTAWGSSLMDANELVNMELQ
Kind of experiment: protein-binding microarray (RPBM); PBS, 2% BSA, 51.3 ng/ul salmon testes DNA, 50 uM zinc acetate, 200 nM TF, 25 C, 1 h; high values mean tight binding. The following applies: protein: recombinant; tags: N-terminal polyhistidine and DsRed monomer fusion (pET32a); chain copies: 2; label: CyDye5-dUTP incorporated in the synthesized complementary strand; 3' TTTTT single-stranded linker to array surface; dsDNA, one strand shown. The essentials: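 A custom Agilent array was converted to double-stranded form by primer extension with Cy5-dUTP and blocked with 2% BSA. Protein at 200 nM in PBS with 2% BSA, salmon testes DNA and 50 µM zinc acetate was applied for 1 h at 25 °C, followed by washing. The proteins were polyhistidine–DsRed N-terminal fusions of transcription factors, expressed in E. coli BL21-CodonPlus and Ni–NTA-purified. The binding signal is per-feature fluorescence intensity (arbitrary units) from an Axon 4000B scanner.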
Consider “AAGTATGACTTGTATCTTAGCATGTTTATACTGATTCGCACGGAGTCACCTAGTGCAG”, for which the binding signal is 3800 fluorescence intensity (a.u.).
To “GATAACTCCAGGAGAATTTACTGAGATGGCCTGGGAGGGGCGGAGTCACCTAGTGCAG” belongs 4310 fluorescence intensity (a.u.); to “TAAACCCTAAGTTTCTGTGTCCAACGTTTGACTGTCTGTCCGGAGTCACCTAGTGCAG”, 3170 fluorescence intensity (a.u.).
The same measure for “TTCCCATAATTCTTTCAAATAGATTTGCATGCGTATTCTTCGGAGTCACCTAGTGCAG”: 3360 fluorescence intensity (a.u.).
To “TATCCATCCTAGTTGGCGTGCACACGATGATGGTTGACTGCGGAGTCACCTAGTGCAG” belongs 4620 fluorescence intensity (a.u.); to “GTGACCGCCAATCATGAGCTCAACACTCTCTATTCCCTTCCGGAGTCACCTAGTGCAG”, 8510 fluorescence intensity (a.u.).
On to “GGCAAATCTCATGTGCACGGTGCACGGCATGACGTGGCAGCGGAGTCACCTAGTGCAG”, for which the binding signal was 33200 fluorescence intensity (a.u.).
With “AACGCGCAGGATCTCCCCACGTGGCGCGGCCCACGTGCGCCGGAGTCACCTAGTGCAG”, the binding signal was 9720 fluorescence intensity (a.u.).
The same measure for “CGGTTAAAATCACCTAAGGATGCAGAGTGATCTGGTTTTGCGGAGTCACCTAGTGCAG”: 3770 fluorescence intensity (a.u.).
As for “TGCGATTTTAGACGATTATCGTGCGATTATCACGGTTATCCGGAGTCACCTAGTGCAG”, the binding signal is 3360 fluorescence intensity (a.u.).
The same measure for “GCTTCATCCATCCATCAGCTGGGCCTGGGCTGGCTTAACTCGGAGTCACCTAGTGCAG”: 27000 fluorescence intensity (a.u.).
To “TTTAGCTGACGCTGTGACGCATGTTGCTTTCGTTGACAAACGGAGTCACCTAGTGCAG” belongs 5600 fluorescence intensity (a.u.); to “AGTCTCAACATTACATGACACAAGATGATGTAACCTGCAGCGGAGTCACCTAGTGCAG”, 3660 fluorescence intensity (a.u.); to “TGTTCTTCTTCACGCCGGCTGCAACTACACCTCTTGCATTCGGAGTCACCTAGTGCAG”, 3470 fluorescence intensity (a.u.).
To “TGCGAAAGGAACAGTGTTGTGAGGTCGCAATCCCGTCTCGCGGAGTCACCTAGTGCAG” belongs 3840 fluorescence intensity (a.u.).
On to “CCTGATATCCATGCATGTGTCATCGTTTGCAGTTGTATTGCGGAGTCACCTAGTGCAG”, for which the binding signal was 6660 fluorescence intensity (a.u.).
To “TAACTATTTGTCACACCTATCTTAATGACATGTGGATTCACGGAGTCACCTAGTGCAG” belongs 3250 fluorescence intensity (a.u.).
In the case of “TGGAAGGGGCAGGTTCGAGGTGCTGTCTGGGTATGTCAATCGGAGTCACCTAGTGCAG”, the binding signal is 3290 fluorescence intensity (a.u.).
To “CACCCGTGCGTAATCATGACGCCGGGGTGACGTCACCATCCGGAGTCACCTAGTGCAG” belongs 30200 fluorescence intensity (a.u.); to “ACCAACATCAAGTCGTCGGCGCTCGTCAACCAACTCATCACGGAGTCACCTAGTGCAG”, 3770 fluorescence intensity (a.u.); to “AATTAGCTGATTTGCAAATGATTTCCACCGTGGTGTGACACGGAGTCACCTAGTGCAG”, 3840 fluorescence intensity (a.u.).
The same measure for “CAGCACAGCAATATTAACCATTCTCTCGATCGAGTCAGAACGGAGTCACCTAGTGCAG”: 3280 fluorescence intensity (a.u.).
The same measure for “GGAGCTACCCCTCTCACCGGCGCGTGGGCCCCACCTCACGCGGAGTCACCTAGTGCAG”: 4310 fluorescence intensity (a.u.); for “CGCCCGAGAGCGAACGGCCGTCTGCCACGTCACTTTCGCCCGGAGTCACCTAGTGCAG”: 29100 fluorescence intensity (a.u.); for “ATAGAAAGATGTGTTTTGTAGGAAGACGAAGCAAGACTTTCGGAGTCACCTAGTGCAG”: 34400 fluorescence intensity (a.u.).
For “TACGCCAGAATCCTACATCTGTGACGGCACACCAGTGACGCGGAGTCACCTAGTGCAG”, the binding signal is 3950 fluorescence intensity (a.u.).
Turning to “CATACCCAGAGATCAAATTAAGCCGACGGATCAGCGGAGCCGGAGTCACCTAGTGCAG”, the binding signal was 28200 fluorescence intensity (a.u.).
Consider “GTAGGTGTCATATGTCAGTTCCAGTCATATTGACAGTTGGCGGAGTCACCTAGTGCAG”, for which the binding signal was 6590 fluorescence intensity (a.u.).
To “AGGACGGCAGTGCTGCTCCATCAACAACGTGGCTAAGTAACGGAGTCACCTAGTGCAG” belongs 3140 fluorescence intensity (a.u.); to “GCACGCCGCGGTCGCGGCTGCCGCCGTGGACGCGGCACAACGGAGTCACCTAGTGCAG”, 3980 fluorescence intensity (a.u.); to “AAGCTTTGGGTTGCTGCTGCGTCACCCCTCTCGGGCCACACGGAGTCACCTAGTGCAG”, 7290 fluorescence intensity (a.u.).
To “TACATTCATCTGACAATGACATATGGACCCCACAGTTCTGCGGAGTCACCTAGTGCAG” belongs 3290 fluorescence intensity (a.u.).
“GAAATCTAATTTTATCCACGAGACTATAGTGAGCCTACTCCGGAGTCACCTAGTGCAG”: the binding signal was 39700 fluorescence intensity (a.u.).
To “TCGTACCCGTCCTACGTGTCCGCACAGTAGCTCAACCCACCGGAGTCACCTAGTGCAG” belongs 8630 fluorescence intensity (a.u.); to “CACCTCGCGCCGCGCCCCATCCTTATCGTCATGACACGCCCGGAGTCACCTAGTGCAG”, 3700 fluorescence intensity (a.u.).
The same measure for “CGCCAGTTGCTAGCCACGTCGCCTCCGTCCTTGCTACTGCCGGAGTCACCTAGTGCAG”: 3920 fluorescence intensity (a.u.).
The same measure for “TCCCACAGGTGGCGCCGGCGGGTGATCTAGCTACGGACATCGGAGTCACCTAGTGCAG”: 3390 fluorescence intensity (a.u.); for “TACGGAAACTATCCGTATACGCACGGGTATATCGTATCAGCGGAGTCACCTAGTGCAG”: 3250 fluorescence intensity (a.u.); for “AGAAGGAAAGAGTTTCATCCTGGTGAAACTCGTCAGCGTCCGGAGTCACCTAGTGCAG”: 3510 fluorescence intensity (a.u.).
Take “TTCTCCTGCTCCCGCCGCATCATCGCTCACCGGTGAGCATCGGAGTCACCTAGTGCAG”: the binding signal is 3870 fluorescence intensity (a.u.).
The same measure for “GACCAAACCTCCAATTAACAAGGTAGTTTAACACACATCACGGAGTCACCTAGTGCAG”: 16100 fluorescence intensity (a.u.); for “TCCAAGCAATGACACTGATCGATCTTCCTGTTCACATATGCGGAGTCACCTAGTGCAG”: 4190 fluorescence intensity (a.u.).
